No constants are given. Whether binding was seen depends on the method and setting. For some assays here: In cells and extracts the contact can be indirect. Some entries that bind do so weakly or less than the wild type. For some assays here: Where a sequence is shown, tags or fusion partners need not be part of it. Values belong to the binder of their own block, whether it stands above or below them.
Assays:
[1] = target: T1, Heh1 (as in the co-immunoprecipitations of the supplementary figures) (S. cerevisiae) (UniProt Q03707); experiment: co-IP; yeast cell lysates (50 mM Tris pH 7.5, 150 mM NaCl, 10% glycerol, 1 mM EDTA, 0.5% NP-40) on antiHA-sepharose, GFP-Trap or IgG-agarose beads, 1.5 h at 4 °C, immunoblot; cells also with cdc14-3 at 37 °C, phosphatase inhibitors, Net1 depletion, nur1Pmim, SUMO overexpression (WT, FAIA, KRall), Cdc48 mutants, STUbL deletions or I-PpoI rDNA damage
T1 sequence: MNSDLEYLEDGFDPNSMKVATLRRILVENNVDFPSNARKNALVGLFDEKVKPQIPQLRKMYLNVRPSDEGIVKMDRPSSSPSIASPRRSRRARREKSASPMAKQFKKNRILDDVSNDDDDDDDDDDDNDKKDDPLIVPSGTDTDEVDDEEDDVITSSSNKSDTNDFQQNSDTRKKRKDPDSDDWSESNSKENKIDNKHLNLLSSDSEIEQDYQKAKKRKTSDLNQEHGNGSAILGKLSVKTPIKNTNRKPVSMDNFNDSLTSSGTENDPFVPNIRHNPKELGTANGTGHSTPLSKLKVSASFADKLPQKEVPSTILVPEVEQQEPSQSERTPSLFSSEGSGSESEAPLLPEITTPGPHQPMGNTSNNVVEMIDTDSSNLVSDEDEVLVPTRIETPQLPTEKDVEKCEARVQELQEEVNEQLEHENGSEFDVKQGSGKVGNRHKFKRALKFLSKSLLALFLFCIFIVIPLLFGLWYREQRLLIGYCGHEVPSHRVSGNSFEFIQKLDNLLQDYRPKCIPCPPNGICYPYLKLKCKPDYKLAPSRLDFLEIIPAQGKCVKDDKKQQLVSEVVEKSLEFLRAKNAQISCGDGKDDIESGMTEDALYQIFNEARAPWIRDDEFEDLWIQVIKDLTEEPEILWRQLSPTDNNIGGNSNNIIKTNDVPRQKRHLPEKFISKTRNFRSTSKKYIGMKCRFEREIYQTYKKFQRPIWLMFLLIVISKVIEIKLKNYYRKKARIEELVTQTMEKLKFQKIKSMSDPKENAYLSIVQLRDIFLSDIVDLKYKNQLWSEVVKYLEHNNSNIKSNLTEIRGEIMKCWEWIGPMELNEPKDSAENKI

[2] = target: T2, Ufd1 (two-hybrid fusion) (S. cerevisiae) (UniProt P53044); experiment: two-hybrid; Gal4 AD (pGADT7) and BD (pGBKT7) fusions in PJ69a, or Y187 mated with Y2HGold; spotting on -LW and on -LWH, -LWH + 1 mM 3-aminotriazol, -LWHA, 3 days unless indicated
T2 sequence: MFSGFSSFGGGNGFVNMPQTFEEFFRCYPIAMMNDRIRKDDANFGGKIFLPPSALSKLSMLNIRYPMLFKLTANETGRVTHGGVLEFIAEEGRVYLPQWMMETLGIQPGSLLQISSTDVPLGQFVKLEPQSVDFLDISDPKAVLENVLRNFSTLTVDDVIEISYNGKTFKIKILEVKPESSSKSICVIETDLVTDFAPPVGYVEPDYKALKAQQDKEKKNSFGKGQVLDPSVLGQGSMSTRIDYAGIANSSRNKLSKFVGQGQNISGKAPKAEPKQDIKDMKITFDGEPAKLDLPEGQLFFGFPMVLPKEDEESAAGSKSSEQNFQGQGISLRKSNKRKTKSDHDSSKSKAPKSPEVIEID

Lrs4^TAP (S. cerevisiae) = target: T3, Lrs4^TAP (S. cerevisiae) (UniProt Q04087); experiment: co-IP; yeast cell lysates (50 mM Tris pH 7.5, 150 mM NaCl, 10% glycerol, 1 mM EDTA, 0.5% NP-40) on antiHA-sepharose, GFP-Trap or IgG-agarose beads, 1.5 h at 4 °C, immunoblot; cells also with cdc14-3 at 37 °C, phosphatase inhibitors, Net1 depletion, nur1Pmim, SUMO overexpression (WT, FAIA, KRall), Cdc48 mutants, STUbL deletions or I-PpoI rDNA damage
T3 sequence: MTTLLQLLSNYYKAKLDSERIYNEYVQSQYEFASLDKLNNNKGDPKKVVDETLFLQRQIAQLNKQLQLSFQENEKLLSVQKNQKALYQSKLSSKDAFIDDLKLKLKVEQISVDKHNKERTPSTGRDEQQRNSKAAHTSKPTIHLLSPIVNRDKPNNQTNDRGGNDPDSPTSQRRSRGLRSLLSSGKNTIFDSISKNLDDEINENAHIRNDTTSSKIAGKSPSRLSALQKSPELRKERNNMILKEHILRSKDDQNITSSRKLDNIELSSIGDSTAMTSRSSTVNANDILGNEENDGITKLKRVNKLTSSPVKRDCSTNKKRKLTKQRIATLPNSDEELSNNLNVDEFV

[3] = target: T4, Lrs4 (as in the co-immunoprecipitations of the supplementary figures) (S. cerevisiae) (UniProt Q04087); experiment: as above
T4 sequence: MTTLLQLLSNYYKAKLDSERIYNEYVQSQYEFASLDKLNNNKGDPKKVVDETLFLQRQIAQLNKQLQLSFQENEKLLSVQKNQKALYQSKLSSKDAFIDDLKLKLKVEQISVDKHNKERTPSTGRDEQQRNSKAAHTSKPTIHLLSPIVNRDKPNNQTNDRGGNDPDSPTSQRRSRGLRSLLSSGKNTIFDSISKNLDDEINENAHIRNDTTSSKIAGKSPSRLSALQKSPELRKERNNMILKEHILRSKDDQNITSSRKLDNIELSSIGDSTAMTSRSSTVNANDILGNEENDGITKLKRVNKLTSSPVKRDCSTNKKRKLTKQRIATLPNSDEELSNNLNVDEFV

Heh1^GFP (S. cerevisiae) = target: T5, Heh1^GFP (S. cerevisiae) (UniProt Q03707); experiment: as above
T5 sequence: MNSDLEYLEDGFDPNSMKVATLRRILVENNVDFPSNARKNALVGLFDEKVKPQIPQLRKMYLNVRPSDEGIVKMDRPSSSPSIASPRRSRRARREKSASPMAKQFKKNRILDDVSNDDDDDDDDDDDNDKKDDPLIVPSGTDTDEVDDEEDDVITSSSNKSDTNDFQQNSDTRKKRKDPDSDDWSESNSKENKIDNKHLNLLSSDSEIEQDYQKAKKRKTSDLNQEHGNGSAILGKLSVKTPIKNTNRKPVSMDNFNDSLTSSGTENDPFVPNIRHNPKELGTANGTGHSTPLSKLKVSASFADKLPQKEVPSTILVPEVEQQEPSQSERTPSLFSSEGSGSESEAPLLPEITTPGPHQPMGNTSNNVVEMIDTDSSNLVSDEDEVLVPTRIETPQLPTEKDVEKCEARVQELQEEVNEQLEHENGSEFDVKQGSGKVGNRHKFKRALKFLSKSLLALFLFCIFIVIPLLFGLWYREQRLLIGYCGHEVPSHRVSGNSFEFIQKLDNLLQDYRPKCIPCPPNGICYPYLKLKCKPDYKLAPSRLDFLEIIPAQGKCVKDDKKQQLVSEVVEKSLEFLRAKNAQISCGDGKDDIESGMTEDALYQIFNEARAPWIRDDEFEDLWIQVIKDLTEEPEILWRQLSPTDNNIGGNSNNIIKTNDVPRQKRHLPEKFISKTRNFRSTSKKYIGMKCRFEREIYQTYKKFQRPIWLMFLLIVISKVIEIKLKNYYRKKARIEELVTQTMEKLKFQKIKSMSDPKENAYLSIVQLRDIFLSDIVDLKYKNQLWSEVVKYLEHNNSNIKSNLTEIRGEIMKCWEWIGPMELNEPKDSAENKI

B1: Nur1 lacking its last C-terminal residues (as in Supplementary Fig. 2e) (domain or fragment, UniProt Q12066 1-430)
chain: MGSNDLINEAYDDSEVVGEERESKSAWMKRWYQLLTSPLDLQLVINEKLEMINWDAYAKSLAKPLGNFLTILFFIIRLLQDNLIKPNYYKLNVKSGAFDLSKSNKLKEFDYLWEISSSFQNNNQFYAFQSWYFVTLRFLNNLFRFTIFILLSLNLYVSCKFMFGYFKTYNLFHLKKEFNSPNLTKHNLKDLSKEYYEDIYKQSLWSMLKHFFRGSRDDGPHVNQNEDEIFFQLRKWIPTNFMINLFVSFSPTAIVFLSFSDVSFTSAIAIVFHQYILDYIITKRFQRSVDDDLILSSAALQEYEDKHIMARINQCSNIDTLSSAMGTRSKTPRIFTTHSLCGEEIREVYNYEKREFEALPKMTESVPGSRETRIKDYGGISQVSDHQSHPIGFHYSPRMSPYYRDKVLDNNLAQSSSNENLEKGGAYLPN
binding [1]: binds

binding [2]: binds
B2: Lrs4 (two-hybrid fusion) (protein, UniProt Q04087 1-347)
chain: MTTLLQLLSNYYKAKLDSERIYNEYVQSQYEFASLDKLNNNKGDPKKVVDETLFLQRQIAQLNKQLQLSFQENEKLLSVQKNQKALYQSKLSSKDAFIDDLKLKLKVEQISVDKHNKERTPSTGRDEQQRNSKAAHTSKPTIHLLSPIVNRDKPNNQTNDRGGNDPDSPTSQRRSRGLRSLLSSGKNTIFDSISKNLDDEINENAHIRNDTTSSKIAGKSPSRLSALQKSPELRKERNNMILKEHILRSKDDQNITSSRKLDNIELSSIGDSTAMTSRSSTVNANDILGNEENDGITKLKRVNKLTSSPVKRDCSTNKKRKLTKQRIATLPNSDEELSNNLNVDEFV

B3: Heh1^GFP (protein, UniProt Q03707 1-834)
chain: MNSDLEYLEDGFDPNSMKVATLRRILVENNVDFPSNARKNALVGLFDEKVKPQIPQLRKMYLNVRPSDEGIVKMDRPSSSPSIASPRRSRRARREKSASPMAKQFKKNRILDDVSNDDDDDDDDDDDNDKKDDPLIVPSGTDTDEVDDEEDDVITSSSNKSDTNDFQQNSDTRKKRKDPDSDDWSESNSKENKIDNKHLNLLSSDSEIEQDYQKAKKRKTSDLNQEHGNGSAILGKLSVKTPIKNTNRKPVSMDNFNDSLTSSGTENDPFVPNIRHNPKELGTANGTGHSTPLSKLKVSASFADKLPQKEVPSTILVPEVEQQEPSQSERTPSLFSSEGSGSESEAPLLPEITTPGPHQPMGNTSNNVVEMIDTDSSNLVSDEDEVLVPTRIETPQLPTEKDVEKCEARVQELQEEVNEQLEHENGSEFDVKQGSGKVGNRHKFKRALKFLSKSLLALFLFCIFIVIPLLFGLWYREQRLLIGYCGHEVPSHRVSGNSFEFIQKLDNLLQDYRPKCIPCPPNGICYPYLKLKCKPDYKLAPSRLDFLEIIPAQGKCVKDDKKQQLVSEVVEKSLEFLRAKNAQISCGDGKDDIESGMTEDALYQIFNEARAPWIRDDEFEDLWIQVIKDLTEEPEILWRQLSPTDNNIGGNSNNIIKTNDVPRQKRHLPEKFISKTRNFRSTSKKYIGMKCRFEREIYQTYKKFQRPIWLMFLLIVISKVIEIKLKNYYRKKARIEELVTQTMEKLKFQKIKSMSDPKENAYLSIVQLRDIFLSDIVDLKYKNQLWSEVVKYLEHNNSNIKSNLTEIRGEIMKCWEWIGPMELNEPKDSAENKI
binding (Lrs4^TAP (S. cerevisiae)): binds

B4: N-terminal GFP-Heh1 fusion, long splice variant (Heh1) (protein, UniProt Q03707 1-834)
chain: MNSDLEYLEDGFDPNSMKVATLRRILVENNVDFPSNARKNALVGLFDEKVKPQIPQLRKMYLNVRPSDEGIVKMDRPSSSPSIASPRRSRRARREKSASPMAKQFKKNRILDDVSNDDDDDDDDDDDNDKKDDPLIVPSGTDTDEVDDEEDDVITSSSNKSDTNDFQQNSDTRKKRKDPDSDDWSESNSKENKIDNKHLNLLSSDSEIEQDYQKAKKRKTSDLNQEHGNGSAILGKLSVKTPIKNTNRKPVSMDNFNDSLTSSGTENDPFVPNIRHNPKELGTANGTGHSTPLSKLKVSASFADKLPQKEVPSTILVPEVEQQEPSQSERTPSLFSSEGSGSESEAPLLPEITTPGPHQPMGNTSNNVVEMIDTDSSNLVSDEDEVLVPTRIETPQLPTEKDVEKCEARVQELQEEVNEQLEHENGSEFDVKQGSGKVGNRHKFKRALKFLSKSLLALFLFCIFIVIPLLFGLWYREQRLLIGYCGHEVPSHRVSGNSFEFIQKLDNLLQDYRPKCIPCPPNGICYPYLKLKCKPDYKLAPSRLDFLEIIPAQGKCVKDDKKQQLVSEVVEKSLEFLRAKNAQISCGDGKDDIESGMTEDALYQIFNEARAPWIRDDEFEDLWIQVIKDLTEEPEILWRQLSPTDNNIGGNSNNIIKTNDVPRQKRHLPEKFISKTRNFRSTSKKYIGMKCRFEREIYQTYKKFQRPIWLMFLLIVISKVIEIKLKNYYRKKARIEELVTQTMEKLKFQKIKSMSDPKENAYLSIVQLRDIFLSDIVDLKYKNQLWSEVVKYLEHNNSNIKSNLTEIRGEIMKCWEWIGPMELNEPKDSAENKI
binding [3]: binds

B5: Nur1^3HA (HA-tagged Nur1 full-length) (protein, UniProt Q12066 1-484)
chain: MGSNDLINEAYDDSEVVGEERESKSAWMKRWYQLLTSPLDLQLVINEKLEMINWDAYAKSLAKPLGNFLTILFFIIRLLQDNLIKPNYYKLNVKSGAFDLSKSNKLKEFDYLWEISSSFQNNNQFYAFQSWYFVTLRFLNNLFRFTIFILLSLNLYVSCKFMFGYFKTYNLFHLKKEFNSPNLTKHNLKDLSKEYYEDIYKQSLWSMLKHFFRGSRDDGPHVNQNEDEIFFQLRKWIPTNFMINLFVSFSPTAIVFLSFSDVSFTSAIAIVFHQYILDYIITKRFQRSVDDDLILSSAALQEYEDKHIMARINQCSNIDTLSSAMGTRSKTPRIFTTHSLCGEEIREVYNYEKREFEALPKMTESVPGSRETRIKDYGGISQVSDHQSHPIGFHYSPRMSPYYRDKVLDNNLAQSSSNENLEKGGAYLPNQDQNRPSKSLSPLRKTPLSARQKRFEGSEFNVLNKNDINSILRSPKKKKNYHKR
binding (Heh1^GFP (S. cerevisiae)): binds
